Assay results reported in article PMC10336132 (2023).
These are yes or no findings as the source states them, for the method shown. In cells and extracts the contact can be indirect. Here binding means that the protein was enriched with, or labelled near, the bait; the list need not be complete.

Amino acid sequences for entries named in this document (tags omitted). A change or cut given only in a name is not applied to a line headed by its entry.
UniProt B8GX61: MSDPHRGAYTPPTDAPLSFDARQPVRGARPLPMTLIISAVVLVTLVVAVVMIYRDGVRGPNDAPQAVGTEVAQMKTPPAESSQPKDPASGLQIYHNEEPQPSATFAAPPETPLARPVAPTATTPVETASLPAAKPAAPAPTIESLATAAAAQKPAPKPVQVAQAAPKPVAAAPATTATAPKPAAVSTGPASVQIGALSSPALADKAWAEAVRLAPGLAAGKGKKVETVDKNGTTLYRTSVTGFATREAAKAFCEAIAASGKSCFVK
UniProt A0A0H3C9I3: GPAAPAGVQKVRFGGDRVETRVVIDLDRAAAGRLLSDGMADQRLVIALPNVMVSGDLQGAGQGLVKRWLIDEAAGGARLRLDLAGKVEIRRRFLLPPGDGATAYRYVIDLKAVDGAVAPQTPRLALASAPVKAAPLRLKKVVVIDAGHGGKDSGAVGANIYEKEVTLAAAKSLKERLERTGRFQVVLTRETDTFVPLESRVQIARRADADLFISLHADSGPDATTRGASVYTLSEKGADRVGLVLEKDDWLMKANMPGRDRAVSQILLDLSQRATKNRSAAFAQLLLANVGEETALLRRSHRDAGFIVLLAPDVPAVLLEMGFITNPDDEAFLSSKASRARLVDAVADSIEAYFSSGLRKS
UniProt A0A0H3C9Q9: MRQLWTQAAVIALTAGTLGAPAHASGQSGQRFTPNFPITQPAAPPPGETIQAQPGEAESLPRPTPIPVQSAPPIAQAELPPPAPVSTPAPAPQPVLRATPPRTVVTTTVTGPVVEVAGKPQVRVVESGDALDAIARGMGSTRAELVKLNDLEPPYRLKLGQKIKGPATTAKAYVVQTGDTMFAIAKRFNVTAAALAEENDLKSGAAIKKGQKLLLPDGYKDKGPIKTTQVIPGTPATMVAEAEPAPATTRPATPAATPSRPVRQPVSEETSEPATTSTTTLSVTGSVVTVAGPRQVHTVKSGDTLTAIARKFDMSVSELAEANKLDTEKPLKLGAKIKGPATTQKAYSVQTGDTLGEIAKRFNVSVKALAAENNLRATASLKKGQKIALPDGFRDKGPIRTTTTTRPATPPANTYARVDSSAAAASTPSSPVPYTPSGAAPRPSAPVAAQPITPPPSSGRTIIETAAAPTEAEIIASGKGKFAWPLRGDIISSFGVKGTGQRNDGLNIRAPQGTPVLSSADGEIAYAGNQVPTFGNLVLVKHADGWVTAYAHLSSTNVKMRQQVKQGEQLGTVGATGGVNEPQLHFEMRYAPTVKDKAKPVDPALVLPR

What was measured:
[1] = target: DipM-FLAG (Caulobacter crescentus NA1000); experiment: affinity purification with mass spectrometry; FLAG-tagged bait produced in C. crescentus in place of the native protein; cells crosslinked with 0.6% formaldehyde, lysed with 0.5% or 1% Triton X-100; capture on anti-FLAG M2 magnetic beads; enrichment against the untagged control
[2] = target: SdpA-FLAG (Caulobacter crescentus NA1000); experiment: as above
[3] = target: FtsN-GFP (Caulobacter crescentus NA1000) (UniProt B8GX61); experiment: affinity purification with mass spectrometry; FtsN-GFP from the endogenous locus in C. crescentus; cells crosslinked with 0.6% formaldehyde, lysed with 1% Triton X-100; capture on GFP-Trap magnetic agarose; wild-type NA1000 as control

Substance	binding [1]	binding [2]	binding [3]
AmiC (from UniProt A0A0H3C9I3) (enzyme)	binds	–	–
DipM (from UniProt A0A0H3C9Q9)	–	binds	binds
FtsN (from UniProt B8GX61)	binds	–	–
